Assay results reported in paper PMC3723657.

Chains of the proteins cited; added tags and fusions are not shown. Lines headed by an entry give the natural chain unless they say otherwise; changes in a name come on top. A line that says so, or that is headed by a name, gives the form on record, which may keep a tag or linker.
UniProt P52926: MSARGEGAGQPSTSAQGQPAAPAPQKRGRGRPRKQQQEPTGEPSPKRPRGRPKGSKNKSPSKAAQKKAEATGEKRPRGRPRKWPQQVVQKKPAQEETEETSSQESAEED
XLHMGA2betaa (Xenopus laevis), one chain, as listed by the source: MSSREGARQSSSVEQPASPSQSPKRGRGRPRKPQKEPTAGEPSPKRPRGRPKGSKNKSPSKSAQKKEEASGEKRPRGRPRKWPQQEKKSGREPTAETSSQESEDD

Legend:
Test in all cases: EMSA
[1] = tested on: XHMG-AT-hook1 (HA-XATH1) (Xenopus laevis); conditions: 0.1 pmol probe, 2, 4, 6 uL IVT protein; EMSA as previously described (ref 30); protein translated in vitro; protein details: HA
[2] = tested on: XLHMGA2betaa (HA-XLA2betaa) (Xenopus laevis); conditions: 0.1 pmol probe, 2, 4, 6 uL IVT protein; EMSA as previously described (ref 30); protein translated in vitro; protein details: HA
[3] = tested on: XLHMGA2betaa (Xenopus laevis); conditions: EMSA as previously described (ref 30); recombinant protein
[4] = biological target: hHMGA2 (human) (UniProt P52926); conditions: EMSA as previously described (ref 30); recombinant protein
[5] = biological target: T1, human HMGA1a (human) (UniProt P17096); conditions: EMSA as previously described (ref 30); recombinant protein
T1 sequence (looked up, limits assumed): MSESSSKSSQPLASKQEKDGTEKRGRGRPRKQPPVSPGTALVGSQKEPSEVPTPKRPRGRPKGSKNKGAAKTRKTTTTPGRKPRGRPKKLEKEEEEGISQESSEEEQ

Row | Sequence | binding result [1] | binding result [2] | binding result [3] | binding result [4] | binding result [5]
1 | AGAAAAACTCCATCTAAAAAAAAAAAAAAAAAAAAAAAAAAACA (double strand) [E3] | no binding | binds | binds | binds | binds
2 | GAAAGTGGAAATTCCTCTGAATAGAGAG (double strand) [NRDI] |  |  | binds | binds | binds
3 | GACACATTAATCTATAATCAAATAC (double strand) [HCRII] | no binding | binds | binds | binds | binds

The exact form of at least one protein or probe is not confirmed. For some of these results: No signal at the amounts used counts as a negative. For some of these results: At least one verdict rests on a figure or table, not on a statement of the authors. For some of these results: Where a protein sequence is shown, tags need not be part of it.
